Assay results taken from patent US9801922B2, “Compositions and methods of treating cancer” (UNIVERSITY OF IOWA RESEARCH FOUNDATION, priority 2011, dated 2017).

Assay: AUR, DTPP and NAC interaction by Ellman's reagent
Conditions: for reduction of DTNB, in words: absorbance at 412 nm

Structure (SMILES) | reduction of DTNB, in words | direct reaction with NAC (412 nm absorbance), in words (equimolar with NAC, DTPP 24 h, AUR at least 1 h, 37° C.)
CC[PH](CC)(CC)[Au][S][C@@H]1O[C@H](COC(C)=O)[C@@H](OC(C)=O)[C@H](OC(C)=O)[C@H]1OC(C)=O [AUR, S-triethylphosphinegold(I)-2,3,4,6-tetra-O-acetyl-1-thio-β-D-glucopyranoside] | able to reduce DTNB | no direct reaction between NAC and AUR
CC(=O)N[C@@H](CS)C(=O)O [NAC, N-acetyl-cysteine] | capable of reducing DTNB | –
